This is one part of the list. The data scatter; read single values as rough.

Protein sequences, listed by entry. Tags and fused reporters are not part of them. Lines headed by an entry give the natural chain unless they say otherwise; changes in a name come on top. Residues count along the entry.
UniProt Q96D53: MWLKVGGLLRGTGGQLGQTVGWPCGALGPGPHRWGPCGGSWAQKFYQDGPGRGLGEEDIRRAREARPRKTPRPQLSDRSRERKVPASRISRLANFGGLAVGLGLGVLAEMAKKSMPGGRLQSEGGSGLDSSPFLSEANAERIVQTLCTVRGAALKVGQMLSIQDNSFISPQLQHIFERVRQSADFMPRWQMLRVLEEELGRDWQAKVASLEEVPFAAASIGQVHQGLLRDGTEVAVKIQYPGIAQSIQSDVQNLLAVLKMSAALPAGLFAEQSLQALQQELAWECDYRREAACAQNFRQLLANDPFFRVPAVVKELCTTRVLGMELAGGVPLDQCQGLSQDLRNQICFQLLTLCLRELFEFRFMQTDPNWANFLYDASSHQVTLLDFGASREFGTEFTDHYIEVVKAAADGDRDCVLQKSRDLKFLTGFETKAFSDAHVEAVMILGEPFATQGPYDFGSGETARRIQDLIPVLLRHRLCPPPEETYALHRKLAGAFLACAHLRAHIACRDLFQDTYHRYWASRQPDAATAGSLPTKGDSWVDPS
UniProt Q8NI60: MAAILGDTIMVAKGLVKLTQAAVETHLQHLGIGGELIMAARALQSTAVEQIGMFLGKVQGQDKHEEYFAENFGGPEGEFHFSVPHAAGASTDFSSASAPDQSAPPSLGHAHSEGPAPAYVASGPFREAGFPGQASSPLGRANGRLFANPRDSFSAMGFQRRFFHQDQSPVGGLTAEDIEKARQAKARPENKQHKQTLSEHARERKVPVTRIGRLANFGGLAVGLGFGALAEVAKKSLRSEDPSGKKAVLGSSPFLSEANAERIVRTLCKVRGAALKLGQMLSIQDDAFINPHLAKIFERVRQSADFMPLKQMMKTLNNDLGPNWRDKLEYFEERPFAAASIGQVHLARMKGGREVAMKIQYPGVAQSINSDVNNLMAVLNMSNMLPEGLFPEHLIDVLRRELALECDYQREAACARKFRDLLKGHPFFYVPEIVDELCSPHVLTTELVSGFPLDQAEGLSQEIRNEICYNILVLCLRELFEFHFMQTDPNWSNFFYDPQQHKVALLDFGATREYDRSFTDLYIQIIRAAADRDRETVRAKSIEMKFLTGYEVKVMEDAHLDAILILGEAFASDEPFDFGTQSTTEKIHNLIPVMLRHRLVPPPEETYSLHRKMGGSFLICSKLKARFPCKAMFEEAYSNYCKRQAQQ
UniProt Q9BT09: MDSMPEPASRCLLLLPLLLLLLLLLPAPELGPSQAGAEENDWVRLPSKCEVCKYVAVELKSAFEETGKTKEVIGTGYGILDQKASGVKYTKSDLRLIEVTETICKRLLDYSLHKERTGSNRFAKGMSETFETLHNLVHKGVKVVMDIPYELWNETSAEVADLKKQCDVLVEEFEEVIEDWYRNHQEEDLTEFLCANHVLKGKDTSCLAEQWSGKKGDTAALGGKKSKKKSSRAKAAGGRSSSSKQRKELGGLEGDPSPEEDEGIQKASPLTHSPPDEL
UniProt Q8NFW8: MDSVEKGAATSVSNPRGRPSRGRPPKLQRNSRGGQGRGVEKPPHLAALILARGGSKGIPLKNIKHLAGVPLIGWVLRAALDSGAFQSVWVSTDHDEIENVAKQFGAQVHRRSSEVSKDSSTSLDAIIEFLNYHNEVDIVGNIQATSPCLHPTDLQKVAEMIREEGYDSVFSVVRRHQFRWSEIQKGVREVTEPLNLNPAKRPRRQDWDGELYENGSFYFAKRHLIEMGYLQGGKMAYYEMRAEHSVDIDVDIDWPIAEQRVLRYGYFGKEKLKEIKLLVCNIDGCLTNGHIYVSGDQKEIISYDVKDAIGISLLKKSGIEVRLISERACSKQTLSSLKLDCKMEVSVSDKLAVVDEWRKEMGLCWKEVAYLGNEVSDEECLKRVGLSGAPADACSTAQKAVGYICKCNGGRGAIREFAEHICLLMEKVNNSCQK
UniProt Q9P2I0: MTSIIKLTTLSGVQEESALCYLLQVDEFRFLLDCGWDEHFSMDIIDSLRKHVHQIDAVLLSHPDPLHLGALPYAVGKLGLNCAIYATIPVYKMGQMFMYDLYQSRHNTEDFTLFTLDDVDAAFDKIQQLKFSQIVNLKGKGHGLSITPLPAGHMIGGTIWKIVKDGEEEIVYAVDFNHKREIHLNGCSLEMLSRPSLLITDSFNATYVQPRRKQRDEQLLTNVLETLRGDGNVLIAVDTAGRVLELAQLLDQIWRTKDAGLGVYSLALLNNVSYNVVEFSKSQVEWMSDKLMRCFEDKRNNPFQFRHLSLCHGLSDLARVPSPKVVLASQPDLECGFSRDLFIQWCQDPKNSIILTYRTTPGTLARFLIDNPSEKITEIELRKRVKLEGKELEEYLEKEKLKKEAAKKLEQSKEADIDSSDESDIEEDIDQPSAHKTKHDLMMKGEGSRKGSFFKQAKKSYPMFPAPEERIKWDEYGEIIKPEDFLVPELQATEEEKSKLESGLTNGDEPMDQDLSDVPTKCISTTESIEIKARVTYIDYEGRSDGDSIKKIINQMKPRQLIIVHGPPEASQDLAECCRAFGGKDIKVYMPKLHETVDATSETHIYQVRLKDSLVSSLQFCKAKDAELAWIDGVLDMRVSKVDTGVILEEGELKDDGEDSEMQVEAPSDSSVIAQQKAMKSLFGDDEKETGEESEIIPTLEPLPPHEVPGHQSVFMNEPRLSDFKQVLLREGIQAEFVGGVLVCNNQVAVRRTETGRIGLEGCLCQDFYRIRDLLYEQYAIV
UniProt P21964: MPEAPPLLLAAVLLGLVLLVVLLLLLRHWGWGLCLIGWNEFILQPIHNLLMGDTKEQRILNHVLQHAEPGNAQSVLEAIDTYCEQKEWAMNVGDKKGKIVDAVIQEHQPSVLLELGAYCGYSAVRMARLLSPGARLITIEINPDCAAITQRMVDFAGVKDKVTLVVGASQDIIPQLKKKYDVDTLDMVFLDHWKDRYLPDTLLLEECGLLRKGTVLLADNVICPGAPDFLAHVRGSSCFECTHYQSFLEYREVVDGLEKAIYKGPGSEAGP
UniProt P54105: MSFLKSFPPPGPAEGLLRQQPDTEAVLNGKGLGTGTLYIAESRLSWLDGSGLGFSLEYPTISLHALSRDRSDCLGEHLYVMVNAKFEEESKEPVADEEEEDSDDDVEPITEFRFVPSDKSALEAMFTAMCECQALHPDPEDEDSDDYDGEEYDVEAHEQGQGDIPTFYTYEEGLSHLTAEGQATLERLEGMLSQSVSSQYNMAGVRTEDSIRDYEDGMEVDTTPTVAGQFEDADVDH
UniProt Q96RY5, 579-605: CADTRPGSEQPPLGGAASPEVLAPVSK
UniProt Q7Z7A1: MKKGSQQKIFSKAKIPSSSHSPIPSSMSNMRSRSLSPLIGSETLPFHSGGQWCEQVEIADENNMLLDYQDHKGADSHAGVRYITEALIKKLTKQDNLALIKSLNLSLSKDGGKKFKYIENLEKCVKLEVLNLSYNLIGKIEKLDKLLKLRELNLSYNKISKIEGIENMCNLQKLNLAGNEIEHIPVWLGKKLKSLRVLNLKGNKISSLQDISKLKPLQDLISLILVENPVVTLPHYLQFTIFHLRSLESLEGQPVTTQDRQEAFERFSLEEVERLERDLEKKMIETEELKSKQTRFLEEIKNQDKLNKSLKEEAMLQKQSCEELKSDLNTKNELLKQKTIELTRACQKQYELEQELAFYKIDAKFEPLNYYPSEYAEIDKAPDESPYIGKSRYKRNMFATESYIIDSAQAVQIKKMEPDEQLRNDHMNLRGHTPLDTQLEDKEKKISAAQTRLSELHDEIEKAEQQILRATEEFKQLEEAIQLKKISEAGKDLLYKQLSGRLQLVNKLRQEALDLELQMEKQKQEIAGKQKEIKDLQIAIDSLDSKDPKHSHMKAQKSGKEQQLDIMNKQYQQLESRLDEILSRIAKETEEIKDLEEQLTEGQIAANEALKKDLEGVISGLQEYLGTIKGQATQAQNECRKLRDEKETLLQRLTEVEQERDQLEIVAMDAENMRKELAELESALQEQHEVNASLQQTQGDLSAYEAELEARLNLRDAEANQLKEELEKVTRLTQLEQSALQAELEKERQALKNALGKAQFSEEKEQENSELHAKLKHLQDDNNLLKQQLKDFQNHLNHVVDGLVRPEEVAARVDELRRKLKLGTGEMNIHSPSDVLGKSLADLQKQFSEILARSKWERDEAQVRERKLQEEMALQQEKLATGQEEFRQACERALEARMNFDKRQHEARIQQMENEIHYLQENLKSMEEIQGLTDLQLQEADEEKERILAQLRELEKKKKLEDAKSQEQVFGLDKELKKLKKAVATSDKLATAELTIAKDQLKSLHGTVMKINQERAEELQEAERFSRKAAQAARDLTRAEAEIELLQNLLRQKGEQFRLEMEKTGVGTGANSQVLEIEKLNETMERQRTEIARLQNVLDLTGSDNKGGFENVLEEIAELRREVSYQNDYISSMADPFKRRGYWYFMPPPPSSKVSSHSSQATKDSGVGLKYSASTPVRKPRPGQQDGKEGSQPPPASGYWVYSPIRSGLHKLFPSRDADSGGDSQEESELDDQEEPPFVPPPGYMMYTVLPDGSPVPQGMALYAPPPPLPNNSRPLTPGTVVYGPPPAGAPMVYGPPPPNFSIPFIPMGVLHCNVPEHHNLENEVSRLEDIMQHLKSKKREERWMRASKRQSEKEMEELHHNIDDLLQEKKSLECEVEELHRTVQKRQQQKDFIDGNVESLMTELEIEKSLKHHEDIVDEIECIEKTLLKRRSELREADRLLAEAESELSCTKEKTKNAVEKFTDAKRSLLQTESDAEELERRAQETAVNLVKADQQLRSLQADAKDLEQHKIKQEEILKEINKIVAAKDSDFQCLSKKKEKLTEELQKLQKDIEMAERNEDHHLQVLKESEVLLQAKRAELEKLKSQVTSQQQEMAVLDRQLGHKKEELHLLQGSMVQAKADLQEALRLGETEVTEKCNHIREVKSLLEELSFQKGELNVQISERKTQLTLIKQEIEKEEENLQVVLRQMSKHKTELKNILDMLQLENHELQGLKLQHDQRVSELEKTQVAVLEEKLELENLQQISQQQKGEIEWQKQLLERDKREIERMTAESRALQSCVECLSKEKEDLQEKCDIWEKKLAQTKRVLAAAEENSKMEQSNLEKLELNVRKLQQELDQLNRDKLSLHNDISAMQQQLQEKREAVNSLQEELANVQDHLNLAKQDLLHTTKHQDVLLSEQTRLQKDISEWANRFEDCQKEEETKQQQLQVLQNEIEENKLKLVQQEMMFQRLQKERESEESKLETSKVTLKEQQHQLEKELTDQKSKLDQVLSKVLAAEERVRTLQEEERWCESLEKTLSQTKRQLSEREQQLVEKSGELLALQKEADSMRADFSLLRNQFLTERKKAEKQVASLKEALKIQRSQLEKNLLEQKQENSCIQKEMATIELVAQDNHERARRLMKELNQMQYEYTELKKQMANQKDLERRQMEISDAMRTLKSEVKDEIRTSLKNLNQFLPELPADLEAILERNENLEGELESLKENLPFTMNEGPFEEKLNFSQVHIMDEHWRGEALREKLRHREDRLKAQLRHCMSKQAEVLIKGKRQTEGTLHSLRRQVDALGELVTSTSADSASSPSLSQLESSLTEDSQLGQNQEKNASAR
UniProt Q9H6Q4, 429-456: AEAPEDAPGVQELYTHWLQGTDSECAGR
UniProt P35606: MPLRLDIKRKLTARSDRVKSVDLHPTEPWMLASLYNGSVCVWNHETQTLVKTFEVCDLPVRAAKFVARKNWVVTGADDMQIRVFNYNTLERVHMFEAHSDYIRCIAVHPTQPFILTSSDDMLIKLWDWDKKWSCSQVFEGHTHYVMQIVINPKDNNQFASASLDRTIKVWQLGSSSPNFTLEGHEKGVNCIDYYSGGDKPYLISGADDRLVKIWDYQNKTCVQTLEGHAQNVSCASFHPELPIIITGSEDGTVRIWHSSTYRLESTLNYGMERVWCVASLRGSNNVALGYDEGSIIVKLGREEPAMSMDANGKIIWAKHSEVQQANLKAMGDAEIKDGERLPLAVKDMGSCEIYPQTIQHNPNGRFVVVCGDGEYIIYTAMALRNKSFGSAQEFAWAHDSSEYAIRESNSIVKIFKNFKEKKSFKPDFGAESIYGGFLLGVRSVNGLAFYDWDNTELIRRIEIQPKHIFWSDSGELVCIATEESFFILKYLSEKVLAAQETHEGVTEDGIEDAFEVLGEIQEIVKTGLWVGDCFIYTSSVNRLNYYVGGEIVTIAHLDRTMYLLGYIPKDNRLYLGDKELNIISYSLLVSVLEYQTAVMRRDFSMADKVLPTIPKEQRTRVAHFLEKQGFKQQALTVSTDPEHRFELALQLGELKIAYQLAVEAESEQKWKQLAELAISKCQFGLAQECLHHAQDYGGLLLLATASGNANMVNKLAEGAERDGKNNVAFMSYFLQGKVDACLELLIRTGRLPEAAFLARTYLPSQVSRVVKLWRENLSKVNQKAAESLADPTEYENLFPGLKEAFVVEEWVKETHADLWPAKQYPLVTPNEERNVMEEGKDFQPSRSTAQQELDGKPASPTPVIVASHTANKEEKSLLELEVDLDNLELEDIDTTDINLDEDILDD

Compound in one assay: ClCC(=O)N[C@H]1CCCc2ccccc12
Kind of assay: log2 mean competition ratio of IA-DTB cysteine labelling (DMSO/compound) (log2 ratio); higher = stronger cysteine engagement by compound. As to conditions: 50 µM; treatment time: 4 h; cell line lysate: HEK293T. How it is done: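 IA-DTB competitive cysteine chemoproteomics in HEK293T RIPA lysate. Lysates were treated with compound 29 or 30 at 50 or 200 µM for 4 h, then IA-DTB (500 µM, 1 h), trypsin-digested, NeutrAvidin-enriched and analysed by diaPASEF. Competition ratio = intensity DMSO / intensity compound (n=4 treated, n=64 DMSO); binding: mean log2 CR ≥ 1 and p ≤ 0.05 plus QC filters. Target is the cysteine site.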
For COQ8B C415 (UniProt Q96D53), the “log2 mean competition ratio” value worked out at 0.028.

For the target CNOT1 C1706 (UniProt A5YKK6), the “log2 mean competition ratio” value stood at 0.174.

Turning to COQ8A C406 (UniProt Q8NI60), the “log2 mean competition ratio” value was -0.142.

CNPY3 C194 (UniProt Q9BT09): the “log2 mean competition ratio” value is -0.209.

For the target CPD C195 (UniProt O75976), the “log2 mean competition ratio” value is 0.174.

As for CMAS C380 (UniProt Q8NFW8), the “log2 mean competition ratio” value stood at 0.71.

For the target CPSF2 C346 (UniProt Q9P2I0), the “log2 mean competition ratio” value is -0.339.

As to CLUH C7, the “log2 mean competition ratio” value was -0.448.

Consider CNOT7 C67, for which the “log2 mean competition ratio” value amounted to 0.0942.

Regarding COMT C207 (UniProt P21964), the “log2 mean competition ratio” value is -0.177.

As for CLNS1A C73 (UniProt P54105), the “log2 mean competition ratio” value is -0.0745.

On to CLUH C184, for which the “log2 mean competition ratio” value was -0.723.

As to CRAMP1 C579 (UniProt Q96RY5), the “log2 mean competition ratio” value was -0.123.

Take CNTRL C1375 (UniProt Q7Z7A1): the “log2 mean competition ratio” value is -0.577.

Turning to CLIP1 C1022, the “log2 mean competition ratio” value was -0.0649.

For CNST C317 (UniProt Q6PJW8), the “log2 mean competition ratio” value was -0.0234.

As for CLMN C353, the “log2 mean competition ratio” value is -0.121.

As for CIAO3 C453 (UniProt Q9H6Q4), the “log2 mean competition ratio” value stood at 1.46.

Consider CNN3 C59 (UniProt Q15417), for which the “log2 mean competition ratio” value was -0.0445.

Take COPB2 C741 (UniProt P35606): the “log2 mean competition ratio” value is -0.741.

The assay is the same for the next values; noted with them: 200 µM; treatment time: 4 h; cell line lysate: HEK293T.
Consider COQ8B C415 (UniProt Q96D53), for which the “log2 mean competition ratio” value was determined as 0.106.

For the target CNOT1 C1706 (UniProt A5YKK6), the “log2 mean competition ratio” value stood at 0.0392.

As to COQ8A C406 (UniProt Q8NI60), the “log2 mean competition ratio” value is -0.00554.

Turning to CNPY3 C194 (UniProt Q9BT09), the “log2 mean competition ratio” value is 0.0444.

On to CPD C195 (UniProt O75976), for which the “log2 mean competition ratio” value was 0.205.

As to CMAS C380 (UniProt Q8NFW8), the “log2 mean competition ratio” value was 0.0574.

Turning to CPSF2 C346 (UniProt Q9P2I0), the “log2 mean competition ratio” value was 0.293.

Turning to CLUH C7, the “log2 mean competition ratio” value came out at 0.178.

As for CNOT7 C67, the “log2 mean competition ratio” value was -0.0912.

As for COMT C207 (UniProt P21964), the “log2 mean competition ratio” value worked out at 0.0986.

For the target CLNS1A C73 (UniProt P54105), the “log2 mean competition ratio” value was -0.057.

Regarding CLUH C184, the “log2 mean competition ratio” value was -0.193.

As to CRAMP1 C579 (UniProt Q96RY5), the “log2 mean competition ratio” value is -0.169.

In the case of CNTRL C1375 (UniProt Q7Z7A1), the “log2 mean competition ratio” value stood at 0.0926.

Take CLIP1 C1022: the “log2 mean competition ratio” value is -0.209.

Take CNST C317 (UniProt Q6PJW8): the “log2 mean competition ratio” value came out at 0.11.

Turning to CLMN C353, the “log2 mean competition ratio” value was -0.136.

In the case of CIAO3 C453 (UniProt Q9H6Q4), the “log2 mean competition ratio” value is -0.339.

Regarding CNN3 C59 (UniProt Q15417), the “log2 mean competition ratio” value was -0.303.

As to COPB2 C741 (UniProt P35606), the “log2 mean competition ratio” value is -0.11.

(Values after the supplement of paper PMC11732987, “Enantioselective OTUD7B fragment discovery through chemoproteomics screening and high-throughput optimisation” (Communications Chemistry, 2025).)
